PubChem BioAssay AID1259254 | NCATS – 2017
This is one part, drawn at random, of about 59,000 reagents tested. Of all reagents, about 1,550 (2.6%) got an active call. 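G2 share is only a proxy for re-replication; each gene was hit by three separate siRNAs, and active genes were retested.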 Raw values are not corrected between plates. Reagents against one gene are numbered here. No sequences are given here. Not given: the amount of reagent.

Test: 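Gene knock-downs that lead to re-replication, shown by excess G2 DNA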 (primary screen)
Cell system: human HCT116 colorectal cancer cells
Reagents: single siRNA against human genes
Duration: 3 days
Measurement: 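Imaged Hoechst DNA stain sorts each cell into a cycle phase by DNA amount; per plate, G2 fraction set to 0% for non-targeting and 100% for GMNN siRNA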
Reading the numbers: G2 robust z-score and G2 cells, % of GMNN control: higher = more G2 cells, more excess DNA replication; raw share of cells in G2: higher = larger share of cells with G2 DNA content
Call rule: 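An siRNA counts as active if its G2 robust z-score lies at least 5 MADs above the screen median; here such calls match roughly 38% of GMNN control or more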

no.	target	reagent no.	G2 robust z-score	G2 cells, % of GMNN control	raw share of cells in G2 (%)	Call
1	PCDHGA5	1	1.97	16.8	11.3	inactive
2	PCDHGA5	2	0.788	8.51	10.2	inactive
3	PCDHGA5	3	0.85	8.94	7.64	inactive
4	HAND1	1	0.752	8.26	6.02	inactive
5	HAND1	2	-0.171	1.76	5.87	inactive
6	HAND1	3	-1.02	-4.23	3.03	inactive
7	LBX1	1	3.36	26.6	17	inactive
8	LBX1	2	-0.0877	2.35	6.72	inactive
9	LBX1	3	1.2	11.4	7.54	inactive
10	VPS50	1	-0.437	-0.109	4.48	inactive
11	VPS50	2	0.39	5.71	6.51	inactive
12	VPS50	3	-1.12	-4.9	1.57	inactive
13	IL17RD	1	1.68	14.8	8.89	inactive
14	IL17RD	2	0.928	9.49	8.27	inactive
15	IL17RD	3	-0.389	0.228	3.27	inactive
16	CDC42EP3	1	1.54	13.8	10.4	inactive
17	CDC42EP3	2	2.13	18	11.6	inactive
18	CDC42EP3	3	-0.0142	2.87	4.25	inactive
19	ZNF432	1	-0.799	-2.65	2.64	inactive
20	ZNF432	2	-1.45	-7.27	2.75	inactive
21	ZNF432	3	-0.164	1.82	4.1	inactive
22	RALGAPA1	1	-0.268	1.08	3.97	inactive
23	RALGAPA1	2	-0.577	-1.09	2.76	inactive
24	RALGAPA1	3	-0.333	0.623	3.39	inactive
25	PHF12	1	2.81	22.7	10.8	inactive
26	PHF12	2	1.69	14.8	12.6	inactive
27	PHF12	3	0.0429	3.27	4.66	inactive
28	MTHFSD	1	6.09	45.8	20.6	active
29	MTHFSD	2	0.33	5.29	6.14	inactive
30	MTHFSD	3	-0.912	-3.45	4.22	inactive
31	RHOA	1	2.45	20.2	11.6	inactive
32	RHOA	2	0.735	8.14	7.02	inactive
33	RHOA	3	-0.126	2.08	5.81	inactive
34	OR51A7	1	1.24	11.7	8.78	inactive
35	OR51A7	2	-0.241	1.27	3.71	inactive
36	OR51A7	3	0.743	8.2	4.21	inactive
37	EIF2S3	1	2.42	20	12.5	inactive
38	EIF2S3	2	2	17.1	11.7	inactive
39	EIF2S3	3	0.116	3.78	5	inactive
40	TRIP11	1	1.3	12.1	9.03	inactive
41	TRIP11	2	-0.88	-3.22	3.07	inactive
42	TRIP11	3	-0.173	1.75	5.88	inactive
43	SOCS2-AS1	1	0.76	8.31	5.97	inactive
44	SOCS2-AS1	2	0.153	4.04	5.18	inactive
45	SOCS2-AS1	3	0.872	9.1	5.72	inactive
46	CRK	1	4.51	34.7	21.6	inactive
47	CRK	2	0.578	7.03	6.66	inactive
48	CRK	3	0.526	6.67	6.13	inactive
49	PIGL	1	-0.707	-2.01	2.51	inactive
50	PIGL	2	0.677	7.73	7.89	inactive
51	PIGL	3	-1.01	-4.11	3.65	inactive
52	IREB2	1	-0.319	0.722	5.96	inactive
53	IREB2	2	-0.775	-2.49	3.29	inactive
54	IREB2	3	-0.923	-3.53	3.76	inactive
55	BRK1	1	-0.874	-3.18	3.3	inactive
56	BRK1	2	-0.36	0.437	4.32	inactive
57	BRK1	3	1.17	11.2	6.71	inactive
58	LGALS13	1	6.47	48.5	22.4	active
59	LGALS13	2	0.0947	3.63	5.92	inactive
60	LGALS13	3	-0.495	-0.513	3.09	inactive
61	LRRC37A	1	2.32	19.3	14.1	inactive
62	LRRC37A	2	2.96	23.8	13.9	inactive
63	LRRC37A	3	-0.731	-2.18	2.61	inactive
64	RBMY1F	1	-1.12	-4.95	3.6	inactive
65	RBMY1F	2	1.4	12.8	9.39	inactive
66	RBMY1F	3	-0.727	-2.15	3.8	inactive
67	ZNF623	1	-0.404	0.128	3.57	inactive
68	ZNF623	2	-0.761	-2.39	4.92	inactive
69	ZNF623	3	-0.493	-0.502	3.13	inactive

Part of the list above in another layout.
| target | reagent no. | G2 robust z-score | G2 cells, % of GMNN control | raw share of cells in G2 (%) | Call |
| --- | --- | --- | --- | --- | --- |
| BRK1 | 1 | -0.874 | -3.18 | 3.3 | inactive |
| BRK1 | 2 | -0.36 | 0.437 | 4.32 | inactive |
| BRK1 | 3 | 1.17 | 11.2 | 6.71 | inactive |
| LGALS13 | 1 | 6.47 | 48.5 | 22.4 | active |
| LGALS13 | 2 | 0.0947 | 3.63 | 5.92 | inactive |
